Measured values published in paper PMC3946611, “hCLE/C14orf166 Associates with DDX1-HSPC117-FAM98B in a Novel Transcription-Dependent Shuttling RNA-Transporting Complex” (PLoS ONE, 2014).
These are yes or no findings as the source states them, for the method shown. Binding seen in cells or lysates may run through a third protein. These calls come from enrichment with a bait or labelling near it, and not all partners need be listed. Tags and fused reporters may be left off the sequences shown.

By UniProt entry, the sequences of proteins in these tests, tags left out.
UniProt P35579: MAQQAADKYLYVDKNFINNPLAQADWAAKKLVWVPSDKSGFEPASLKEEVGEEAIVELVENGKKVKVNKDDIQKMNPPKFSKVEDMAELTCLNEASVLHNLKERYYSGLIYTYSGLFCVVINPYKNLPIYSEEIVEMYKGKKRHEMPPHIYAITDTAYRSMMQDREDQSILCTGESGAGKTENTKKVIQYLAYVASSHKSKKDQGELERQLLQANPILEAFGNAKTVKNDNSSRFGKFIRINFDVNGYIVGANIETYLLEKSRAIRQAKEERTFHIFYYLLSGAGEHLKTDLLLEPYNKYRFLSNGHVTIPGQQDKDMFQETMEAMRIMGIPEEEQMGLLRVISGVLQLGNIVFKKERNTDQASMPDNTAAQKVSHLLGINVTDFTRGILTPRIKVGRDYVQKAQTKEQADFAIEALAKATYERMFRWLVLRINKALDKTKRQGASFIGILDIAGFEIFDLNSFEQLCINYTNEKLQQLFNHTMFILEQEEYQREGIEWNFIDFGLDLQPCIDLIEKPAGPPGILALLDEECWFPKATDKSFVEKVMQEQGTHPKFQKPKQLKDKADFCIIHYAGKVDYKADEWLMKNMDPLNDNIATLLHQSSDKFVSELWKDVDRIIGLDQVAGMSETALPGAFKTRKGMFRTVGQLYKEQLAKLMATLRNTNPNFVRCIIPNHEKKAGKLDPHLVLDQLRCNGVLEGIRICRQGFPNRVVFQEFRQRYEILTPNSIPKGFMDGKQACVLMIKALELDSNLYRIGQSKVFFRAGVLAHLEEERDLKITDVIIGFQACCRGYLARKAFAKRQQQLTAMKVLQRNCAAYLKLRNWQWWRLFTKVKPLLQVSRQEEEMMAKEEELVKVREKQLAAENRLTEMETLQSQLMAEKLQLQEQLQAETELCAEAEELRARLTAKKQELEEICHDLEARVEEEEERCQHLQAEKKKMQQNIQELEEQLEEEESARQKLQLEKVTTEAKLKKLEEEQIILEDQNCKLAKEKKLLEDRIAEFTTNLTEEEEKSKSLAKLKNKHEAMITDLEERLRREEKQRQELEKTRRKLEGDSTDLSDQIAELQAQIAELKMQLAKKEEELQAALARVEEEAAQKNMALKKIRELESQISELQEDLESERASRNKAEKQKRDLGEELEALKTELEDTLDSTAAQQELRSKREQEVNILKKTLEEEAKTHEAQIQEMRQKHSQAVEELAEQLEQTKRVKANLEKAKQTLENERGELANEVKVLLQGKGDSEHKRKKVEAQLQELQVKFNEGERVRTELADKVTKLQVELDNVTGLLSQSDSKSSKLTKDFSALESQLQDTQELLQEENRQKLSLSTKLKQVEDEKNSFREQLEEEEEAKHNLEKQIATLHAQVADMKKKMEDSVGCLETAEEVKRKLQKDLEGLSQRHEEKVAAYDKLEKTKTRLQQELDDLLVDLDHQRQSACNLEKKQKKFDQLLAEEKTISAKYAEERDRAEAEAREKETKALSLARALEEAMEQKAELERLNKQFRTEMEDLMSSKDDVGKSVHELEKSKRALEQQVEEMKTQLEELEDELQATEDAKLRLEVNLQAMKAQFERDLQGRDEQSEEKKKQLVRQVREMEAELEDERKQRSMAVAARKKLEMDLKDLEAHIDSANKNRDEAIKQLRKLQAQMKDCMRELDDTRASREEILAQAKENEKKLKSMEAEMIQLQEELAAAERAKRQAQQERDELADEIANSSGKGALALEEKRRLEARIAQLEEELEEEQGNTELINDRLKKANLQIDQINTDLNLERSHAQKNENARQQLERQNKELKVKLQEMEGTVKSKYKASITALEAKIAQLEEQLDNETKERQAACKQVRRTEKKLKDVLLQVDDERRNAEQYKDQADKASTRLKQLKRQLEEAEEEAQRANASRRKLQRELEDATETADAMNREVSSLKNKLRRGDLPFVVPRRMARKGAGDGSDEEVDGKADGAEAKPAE
UniProt P50552: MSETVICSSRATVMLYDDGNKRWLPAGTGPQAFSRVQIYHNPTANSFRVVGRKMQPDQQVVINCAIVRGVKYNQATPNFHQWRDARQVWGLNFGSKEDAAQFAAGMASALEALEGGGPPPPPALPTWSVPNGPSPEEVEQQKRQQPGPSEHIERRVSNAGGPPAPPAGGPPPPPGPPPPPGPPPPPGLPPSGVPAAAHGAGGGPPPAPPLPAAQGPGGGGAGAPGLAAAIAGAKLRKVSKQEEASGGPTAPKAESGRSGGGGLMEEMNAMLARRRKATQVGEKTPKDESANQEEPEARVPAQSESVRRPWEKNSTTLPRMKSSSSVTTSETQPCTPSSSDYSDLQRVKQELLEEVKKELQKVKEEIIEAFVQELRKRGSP
UniProt P31153: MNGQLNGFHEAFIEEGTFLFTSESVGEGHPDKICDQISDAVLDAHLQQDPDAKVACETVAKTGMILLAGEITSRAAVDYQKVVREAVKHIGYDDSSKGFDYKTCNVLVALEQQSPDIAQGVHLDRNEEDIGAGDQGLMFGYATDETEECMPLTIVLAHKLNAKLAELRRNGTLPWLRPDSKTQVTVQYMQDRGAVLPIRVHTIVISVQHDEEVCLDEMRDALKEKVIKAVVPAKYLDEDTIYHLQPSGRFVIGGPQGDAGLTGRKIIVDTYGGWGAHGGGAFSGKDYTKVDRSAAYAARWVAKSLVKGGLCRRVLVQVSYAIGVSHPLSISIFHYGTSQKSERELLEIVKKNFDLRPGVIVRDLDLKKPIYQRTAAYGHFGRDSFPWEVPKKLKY
UniProt Q9P2F8: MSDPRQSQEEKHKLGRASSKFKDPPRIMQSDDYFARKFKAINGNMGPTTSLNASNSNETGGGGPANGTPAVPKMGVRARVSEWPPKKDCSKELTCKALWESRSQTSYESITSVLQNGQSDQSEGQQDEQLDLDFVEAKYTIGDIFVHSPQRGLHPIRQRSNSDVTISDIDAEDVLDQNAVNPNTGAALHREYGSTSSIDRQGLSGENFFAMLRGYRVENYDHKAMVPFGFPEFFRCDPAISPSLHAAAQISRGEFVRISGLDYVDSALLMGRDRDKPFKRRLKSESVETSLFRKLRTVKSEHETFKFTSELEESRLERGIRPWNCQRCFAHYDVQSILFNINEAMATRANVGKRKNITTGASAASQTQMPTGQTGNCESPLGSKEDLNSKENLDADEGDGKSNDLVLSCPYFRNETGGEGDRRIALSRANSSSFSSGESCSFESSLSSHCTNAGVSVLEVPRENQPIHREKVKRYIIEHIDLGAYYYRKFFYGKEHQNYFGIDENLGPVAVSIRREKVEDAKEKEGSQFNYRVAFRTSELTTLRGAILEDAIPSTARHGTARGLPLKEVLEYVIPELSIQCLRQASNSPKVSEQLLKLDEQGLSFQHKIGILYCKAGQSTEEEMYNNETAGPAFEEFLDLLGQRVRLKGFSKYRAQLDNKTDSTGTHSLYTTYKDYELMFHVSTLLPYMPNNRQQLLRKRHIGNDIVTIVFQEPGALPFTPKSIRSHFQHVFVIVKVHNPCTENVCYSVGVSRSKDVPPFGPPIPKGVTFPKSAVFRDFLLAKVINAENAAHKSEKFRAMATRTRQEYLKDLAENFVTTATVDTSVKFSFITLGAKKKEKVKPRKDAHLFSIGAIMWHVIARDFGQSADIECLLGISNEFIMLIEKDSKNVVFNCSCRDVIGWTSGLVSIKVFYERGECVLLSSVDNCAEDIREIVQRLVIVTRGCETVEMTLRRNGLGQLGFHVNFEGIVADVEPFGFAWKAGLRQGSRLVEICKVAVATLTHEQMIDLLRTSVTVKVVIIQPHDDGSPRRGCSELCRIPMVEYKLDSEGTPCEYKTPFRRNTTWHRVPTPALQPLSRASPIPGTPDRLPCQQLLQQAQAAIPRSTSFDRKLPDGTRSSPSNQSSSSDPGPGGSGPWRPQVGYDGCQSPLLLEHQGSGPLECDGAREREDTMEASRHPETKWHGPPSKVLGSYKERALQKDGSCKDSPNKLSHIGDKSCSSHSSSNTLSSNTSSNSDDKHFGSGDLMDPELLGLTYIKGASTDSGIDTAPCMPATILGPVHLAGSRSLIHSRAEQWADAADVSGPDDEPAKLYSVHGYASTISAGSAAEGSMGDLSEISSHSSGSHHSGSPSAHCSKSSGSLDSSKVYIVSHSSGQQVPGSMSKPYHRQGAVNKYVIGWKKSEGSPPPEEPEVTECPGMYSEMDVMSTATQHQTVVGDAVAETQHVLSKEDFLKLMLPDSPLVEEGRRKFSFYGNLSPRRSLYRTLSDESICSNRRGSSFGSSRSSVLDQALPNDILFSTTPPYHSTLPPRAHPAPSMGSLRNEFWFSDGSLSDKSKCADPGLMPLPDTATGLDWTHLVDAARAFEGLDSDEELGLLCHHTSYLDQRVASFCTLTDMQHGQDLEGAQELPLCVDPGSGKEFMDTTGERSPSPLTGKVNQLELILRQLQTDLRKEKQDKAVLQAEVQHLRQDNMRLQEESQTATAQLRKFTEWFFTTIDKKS
UniProt Q13435: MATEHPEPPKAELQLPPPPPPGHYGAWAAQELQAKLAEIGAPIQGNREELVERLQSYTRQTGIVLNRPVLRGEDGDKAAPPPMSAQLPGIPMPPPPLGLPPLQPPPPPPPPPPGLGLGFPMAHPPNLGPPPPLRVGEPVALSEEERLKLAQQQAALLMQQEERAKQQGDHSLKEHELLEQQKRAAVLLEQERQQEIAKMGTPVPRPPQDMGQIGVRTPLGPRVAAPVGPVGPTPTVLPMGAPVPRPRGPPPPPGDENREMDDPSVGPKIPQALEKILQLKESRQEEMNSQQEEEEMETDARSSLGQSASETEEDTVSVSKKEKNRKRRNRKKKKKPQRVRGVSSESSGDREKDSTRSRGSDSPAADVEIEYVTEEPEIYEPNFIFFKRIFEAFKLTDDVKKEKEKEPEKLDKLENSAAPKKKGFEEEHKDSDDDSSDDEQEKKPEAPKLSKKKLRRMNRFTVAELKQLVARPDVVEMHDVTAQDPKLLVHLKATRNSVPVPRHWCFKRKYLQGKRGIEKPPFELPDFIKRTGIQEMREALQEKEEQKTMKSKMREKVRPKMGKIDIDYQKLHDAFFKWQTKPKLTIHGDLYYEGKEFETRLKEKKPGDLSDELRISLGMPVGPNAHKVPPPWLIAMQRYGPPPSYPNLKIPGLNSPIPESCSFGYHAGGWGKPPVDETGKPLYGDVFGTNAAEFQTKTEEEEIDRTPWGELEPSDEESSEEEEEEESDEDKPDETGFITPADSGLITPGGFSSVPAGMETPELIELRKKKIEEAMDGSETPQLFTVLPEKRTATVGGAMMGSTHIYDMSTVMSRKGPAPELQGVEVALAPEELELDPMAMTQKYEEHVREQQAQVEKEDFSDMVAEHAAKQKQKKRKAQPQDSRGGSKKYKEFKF
UniProt P05387: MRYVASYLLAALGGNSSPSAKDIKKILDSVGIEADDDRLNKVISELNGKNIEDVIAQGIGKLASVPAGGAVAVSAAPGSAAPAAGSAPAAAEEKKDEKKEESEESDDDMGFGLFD
UniProt O00139: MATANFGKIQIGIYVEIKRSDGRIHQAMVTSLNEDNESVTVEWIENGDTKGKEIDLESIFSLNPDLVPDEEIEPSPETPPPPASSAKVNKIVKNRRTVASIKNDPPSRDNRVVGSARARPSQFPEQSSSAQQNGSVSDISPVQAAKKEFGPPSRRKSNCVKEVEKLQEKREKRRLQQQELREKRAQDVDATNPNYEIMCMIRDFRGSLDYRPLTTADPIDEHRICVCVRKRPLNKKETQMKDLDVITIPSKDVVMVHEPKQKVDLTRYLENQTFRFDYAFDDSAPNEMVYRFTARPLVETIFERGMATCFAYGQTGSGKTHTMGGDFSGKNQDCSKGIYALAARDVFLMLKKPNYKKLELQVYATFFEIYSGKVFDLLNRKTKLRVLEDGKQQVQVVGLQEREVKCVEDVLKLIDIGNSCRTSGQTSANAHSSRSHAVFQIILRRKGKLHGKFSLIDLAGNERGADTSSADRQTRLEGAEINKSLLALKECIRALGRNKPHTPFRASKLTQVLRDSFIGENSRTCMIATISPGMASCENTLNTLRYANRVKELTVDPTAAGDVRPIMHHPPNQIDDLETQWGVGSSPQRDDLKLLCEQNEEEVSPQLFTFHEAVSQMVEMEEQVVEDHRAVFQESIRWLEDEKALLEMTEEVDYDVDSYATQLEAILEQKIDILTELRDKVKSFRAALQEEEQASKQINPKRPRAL
UniProt Q86U70: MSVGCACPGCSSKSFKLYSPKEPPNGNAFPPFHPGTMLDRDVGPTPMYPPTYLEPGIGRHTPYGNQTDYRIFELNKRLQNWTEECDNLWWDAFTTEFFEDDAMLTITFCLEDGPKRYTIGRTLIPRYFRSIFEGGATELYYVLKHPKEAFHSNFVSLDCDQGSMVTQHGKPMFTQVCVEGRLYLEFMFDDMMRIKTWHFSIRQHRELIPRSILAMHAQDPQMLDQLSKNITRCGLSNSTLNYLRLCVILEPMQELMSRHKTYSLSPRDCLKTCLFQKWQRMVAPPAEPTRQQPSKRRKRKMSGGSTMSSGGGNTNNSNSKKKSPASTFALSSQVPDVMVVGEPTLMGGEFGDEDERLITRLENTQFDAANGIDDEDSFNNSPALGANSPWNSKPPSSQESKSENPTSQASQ

T1: hCLE-TAP tagged protein, purified as hCLE-CBD (human) (UniProt Q9Y224)
T1 sequence: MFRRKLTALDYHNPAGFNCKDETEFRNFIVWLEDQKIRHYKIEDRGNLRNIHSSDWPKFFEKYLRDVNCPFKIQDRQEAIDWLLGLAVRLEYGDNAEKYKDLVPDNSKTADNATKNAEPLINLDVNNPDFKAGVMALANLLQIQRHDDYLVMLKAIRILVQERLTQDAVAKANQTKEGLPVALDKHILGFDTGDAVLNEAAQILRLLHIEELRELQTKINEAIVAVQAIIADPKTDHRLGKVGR

B1: Heterogeneous nuclear ribonucleoprotein R (protein, UniProt O43390 1-633)
chain: MANQVNGNAVQLKEEEEPMDTSSVTHTEHYKTLIEAGLPQKVAERLDEIFQTGLVAYVDLDERAIDALREFNEEGALSVLQQFKESDLSHVQNKSAFLCGVMKTYRQREKQGSKVQESTKGPDEAKIKALLERTGYTLDVTTGQRKYGGPPPDSVYSGVQPGIGTEVFVGKIPRDLYEDELVPLFEKAGPIWDLRLMMDPLSGQNRGYAFITFCGKEAAQEAVKLCDSYEIRPGKHLGVCISVANNRLFVGSIPKNKTKENILEEFSKVTEGLVDVILYHQPDDKKKNRGFCFLEYEDHKSAAQARRRLMSGKVKVWGNVVTVEWADPVEEPDPEVMAKVKVLFVRNLATTVTEEILEKSFSEFGKLERVKKLKDYAFVHFEDRGAAVKAMDEMNGKEIEGEEIEIVLAKPPDKKRKERQAARQASRSTAYEDYYYHPPPRMPPPIRGRGRGGGRGGYGYPPDYYGYEDYYDDYYGYDYHDYRGGYEDPYYGYDDGYAVRGRGGGRGGRGAPPPPRGRGAPPPRGRAGYSQRGAPLGPPRGSRGGRGGPAQQQRGRGSRGSRGNRGGNVGGKRKADGYNQPDSKRRQTNNQQNWGSQPIAQQPLQQGGDYSGNYGYNNDNQEFYQDTYGQQWK
B2: Serrate RNA effector molecule homolog (protein, UniProt Q9BXP5 1-876)
chain: MGDSDDEYDRRRRDKFRRERSDYDRSRERDERRRGDDWNDREWDRGRERRSRGEYRDYDRNRRERFSPPRHELSPPQKRMRRDWDEHSSDPYHSGYEMPYAGGGGGPTYGPPQPWGHPDVHIMQHHVLPIQARLGSIAEIDLGVPPPVMKTFKEFLLSLDDSVDETEAVKRYNDYKLDFRRQQMQDFFLAHKDEEWFRSKYHPDEVGKRRQEARGALQNRLRVFLSLMETGWFDNLLLDIDKADAIVKMLDAAVIKMEGGTENDLRILEQEEEEEQAGKPGEPSKKEEGRAGAGLGDGERKTNDKDEKKEDGKQAENDSSNDDKTKKSEGDGDKEEKKEDSEKEAKKSSKKRNRKHSGDDSFDEGSVSESESESESGQAEEEKEEAEEALKEKEKPKEEEWEKPKDAAGLECKPRPLHKTCSLFMRNIAPNISRAEIISLCKRYPGFMRVALSEPQPERRFFRRGWVTFDRSVNIKEICWNLQNIRLRECELSPGVNRDLTRRVRNINGITQHKQIVRNDIKLAAKLIHTLDDRTQLWASEPGTPPLPTSLPSQNPILKNITDYLIEEVSAEEEELLGSSGGAPPEEPPKEGNPAEINVERDEKLIKVLDKLLLYLRIVHSLDYYNTCEYPNEDEMPNRCGIIHVRGPMPPNRISHGEVLEWQKTFEEKLTPLLSVRESLSEEEAQKMGRKDPEQEVEKFVTSNTQELGKDKWLCPLSGKKFKGPEFVRKHIFNKHAEKIEEVKKEVAFFNNFLTDAKRPALPEIKPAQPPGPAQILPPGLTPGLPYPHQTPQGLMPYGQPRPPILGYGAGAVRPAVPTGGPPYPHAPYGAGRGNYDAFRGQGGYPGKPRNRMVRGDPRAIVEYRDLDAPDDVDFF
B3: ZW10 interactor (protein, UniProt O95229 1-277)
chain: MEAAETEAEAAALEVLAEVAGILEPVGLQEEAELPAKILVEFVVDSQKKDKLLCSQLQVADFLQNILAQEDTAKGLDPLASEDTSRQKAIAAKEQWKELKATYREHVEAIKIGLTKALTQMEEAQRKRTQLREAFEQLQAKKQMAMEKRRAVQNQWQLQQEKHLQHLAEVSAEVRERKTGTQQELDRVFQKLGNLKQQAEQERDKLQRYQTFLQLLYTLQGKLLFPEAEAEAENLPDDKPQQPTRPQEQSTGDTMGRDPGVSFKAVGLQPAGDVNLP
B4: 5∼-3∼exoribonuclease 2 (protein, UniProt Q9H0D6 1-950)
chain: MGVPAFFRWLSRKYPSIIVNCVEEKPKECNGVKIPVDASKPNPNDVEFDNLYLDMNGIIHPCTHPEDKPAPKNEDEMMVAIFEYIDRLFSIVRPRRLLYMAIDGVAPRAKMNQQRSRRFRASKEGMEAAVEKQRVREEILAKGGFLPPEEIKERFDSNCITPGTEFMDNLAKCLRYYIADRLNNDPGWKNLTVILSDASAPGEGEHKIMDYIRRQRAQPNHDPNTHHCLCGADADLIMLGLATHEPNFTIIREEFKPNKPKPCGLCNQFGHEVKDCEGLPREKKGKHDELADSLPCAEGEFIFLRLNVLREYLERELTMASLPFTFDVERSIDDWVFMCFFVGNDFLPHLPSLEIRENAIDRLVNIYKNVVHKTGGYLTESGYVNLQRVQMIMLAVGEVEDSIFKKRKDDEDSFRRRQKEKRKRMKRDQPAFTPSGILTPHALGSRNSPGSQVASNPRQAAYEMRMQNNSSPSISPNTSFTSDGSPSPLGGIKRKAEDSDSEPEPEDNVRLWEAGWKQRYYKNKFDVDAADEKFRRKVVQSYVEGLCWVLRYYYQGCASWKWYYPFHYAPFASDFEGIADMPSDFEKGTKPFKPLEQLMGVFPAASGNFLPPSWRKLMSDPDSSIIDFYPEDFAIDLNGKKYAWQGVALLPFVDERRLRAALEEVYPDLTPEETRRNSLGGDVLFVGKHHPLHDFILELYQTGSTEPVEVPPELCHGIQGKFSLDEEAILPDQIVCSPVPMLRDLTQNTVVSINFKDPQFAEDYIFKAVMLPGARKPAAVLKPSDWEKSSNGRQWKPQLGFNRDRRPVHLDQAAFRTLGHVMPRGSGTGIYSNAAPPPVTYQGNLYRPLLRGQAQIPKLMSNMRPQDSWRGPPPLFQQQRFDRGVGAEPLLPWNRMLQTQNAAFQPNQYQMLAGPGGYPPRRDDRGGRQGYPREGRKYPLPPPSGRYNWN

Biological target: T1, hCLE-TAP tagged protein, purified as hCLE-CBD (human)
Experiment: affinity purification with mass spectrometry; TAP purification of hCLE-TAP from nuclear extracts of transfected HEK293T cells (150 mM NaCl, 10 mM Tris-HCl pH 8.0, 0.1% NP-40); LC-MS/MS; TAP alone as control

binding | Molecule
binds | E3 SUMO-protein ligase PIAS1 (from UniProt O75925 1-651)
binds | Myosin-9 (from UniProt P35579 1-1960)
binds | Nibrin (from UniProt O60934 1-754)
binds | Vasodilator-stimulated phosphoprotein (from UniProt P50552 1-380)
binds | S-adenosylmethionine synthase isoform type-2 (from UniProt P31153 1-395)
binds | Signal-induced proliferation-associated 1-like protein 2 (from UniProt Q9P2F8 1-1722)
binds | Lamin-B receptor (from UniProt Q14739 1-615)
binds | Polyadenylate-binding protein 1 (PABP1) (from UniProt P11940 1-636)
binds | Liprin-alpha-1 (from UniProt Q13136 1-1202)
binds | Kinesin-like protein KIF20A (from UniProt O95235 1-890)
binds | Splicing factor 3B subunit 2 (from UniProt Q13435 1-895)
binds | YTH domain family protein 3 (from UniProt Q7Z739 1-585)
binds | Myosin light polypeptide 6 (from UniProt P60660 1-151)
binds | 60S acidic ribosomal protein P2 (from UniProt P05387 1-115)
binds | Kinesin-like protein KIF2A (from UniProt O00139 1-706)
binds | Nuclear pore complex protein Nup153 (from UniProt P49790 1-1475)
binds | LIM domain-binding protein 1 (from UniProt Q86U70 1-411)
binds | Serine/threonine-protein kinase WNK1 (from UniProt Q9H4A3 1-2382)
binds | signal-induced proliferation-associated 1-like protein 1 (from UniProt O43166 1-1804)
binds | Transcription factor 4 (from UniProt P15884 1-667)
binds | B1
binds | B2
binds | B3
binds | B4
